Data reported in PubChem BioAssay AID720534 (National Center for Advancing Translational Sciences (NCATS), 2013).
In all, about 1,600 compounds went through this assay and about 990 (62%) were called active. So high a share suggests a set chosen from earlier hits. Inconclusive means that the source gave no clear call. Such entries were picked first, then a sample of the others. Calls follow the shape of the dose curve; as a rule, active = well fitted inhibition curve with a large enough effect; inconclusive = small, poorly fitted or top-dose-only effect; inactive = no such curve, though single readings can be large or run the other way. Potencies of inconclusive entries are doubtful fits and often do not repeat.

Assay: qHTS for Inhibitors of TGF-b: Confirmation of Cherry Picks; also: nearly all actives have a fitted effect of over 65% in size
Conditions: HepG2 CAGA-GFP TGF-b reporter, GFP fluorescence, 18 h, cells stimulated with TGF-beta, 500 pg/mL; activity, negative = inhibition: at 46.1 µM (top of the series)
Text: TGF-b is a main component in the TGF-b signaling pathway which plays diverse roles in cellular and development pathways. TGF-b is mediated through transcription factors called "Smads". Although the Smad-dependent pathway is the primary canonical TGF-b signaling mode, TGF-b1 can also activate alternative signaling pathways, including those involving MAPK (ERK, JNK and p38). This interaction may mediate or enhance Smad-dependent responses, or can exert Smad-independent effects. The complexity of this signaling cascade allows the TGF-b superfamily to perform unique, overlapping or redundant functions. We believe that targeting the TGF-beta pathway at the Smad-transcription factor level may eliminate the consequences of disrupting the entire pathway and offer specificity without affecting other signaling pathways. Smad3 is the primary transducer of TGF-b's signals and Smad3 regulates many functions attributed to TGF-b signaling. We hypothesize that Smad3 inhibitors will selectively eliminate Smad3-specific TGF-beta signals without undesired off-target effects. We aim to identify Smad3-small molecule antagonists using a quantitative high throughput screening (qHTS) approach. In this assay, hits identified from the primary screen were re-tested. MH087449NIH Chemical Genomics Center [NCGC] NIH Molecular Libraries Probe Centers Network [MLPCN] MLPCN Grant: MH087449 Assay Submitter (PI): Sushil Rane, National Institute of Diabetes and Kidney Diseases
Suspensions of trypsinized HEPG2 CAGA-GFP cells were dispensed into white, tissue culture-treated, solid 1536-well plates at 5uL/well (1000 cells/well final concentration) in DMEM medium supplemented with 1% FBS. Plates were incubated at 37 degrees C for 2 hours, after which 23 nL of compounds or DMSO were delivered to each well using a pin tool. One uL of recombinant TGF-beta in DMEM (1% FBS) was then dispensed (500 pg/mL final concentration), and plates were incubated at 37 degrees C for 18 hours. The plates were measured on an Acumen eX3 Explorer plate reader for GFP fluorescence (ex488/em500-530). GFP values were calculated by determining the mean GFP fluorescence of individual cells, and compiling these values for each well to determine a total well GFP signal. The %Activity was determined from the corrected fluorescence values. A titration of the known TGF-B inhibitor SB431542 was included to monitor plate performance, while unstimulated HEPG2 (-TGF-B) control wells were used to normalize %Activity of identified inhibitors; unstimulated wells corresponded to 100%Activity (full inhibition), while stimulated cell controls (+DMSO) were used to normalize 0%Activity (no inhibition). Concentration-response curves were fitted to the signals arising from the resulting fluorescence. The concentration-effect curves were then classified based on curve quality (r2), response magnitude and degree of measured activity, and compounds were subsequently categorized based on their curve class.
Potency is read from the fitted curve at half-maximal effect.

Compound | Potency | activity, negative = inhibition
CCc1ccc(NC(=O)COc2ccc(/C=C(/C#N)c3nc4ccccc4[nH]3)cc2OC)cc1 | inconclusive: 4.11 µM [inhibitor, single point] | –
O=[N+]([O-])c1ccc(N2CCN(Cc3ccccc3)CC2)c2c1no[n+]2[O-] | inconclusive: 25.9 µM [inhibitor, single point] | –
COc1ccc(C(NC(=O)C2CCN(CCOc3ccc(Cl)cc3Cl)CC2)c2cccs2)cc1 (configuration not stated) | inconclusive: 29.1 µM [inhibitor, single point] | –
Cc1ccc2nc(N3CCN(C(=O)c4ccc(F)cc4)CC3)c(C#N)cc2c1 | inconclusive: 29.1 µM [inhibitor, single point] | –
CC1(C(=O)Nc2ccccc2Cc2ccccc2)CCN1Cc1ccccc1Cl (configuration not stated) | active: 9.2 µM | –
C=CCn1c(COc2ccccc2F)nnc1SCC(=O)Nc1cc2oc3ccccc3c2cc1OC | inconclusive: 7.31 µM [inhibitor, partial curve] | –
Cc1cc(S(=O)(=O)N2CCN(CC(=O)NCCc3cccs3)CC2)ccc1Br | inconclusive: 20.6 µM [inhibitor, single point] | –
Cc1cc(NC(=O)CS(=O)(=O)c2cn(Cc3cccc(Cl)c3)c3ccccc23)no1 | active: 11.6 µM | –
CCCCNc1c(-c2ccc(OC)c(SC(C)CC)c2)nc2ccc(Cl)cn12 (configuration not stated) | inconclusive: 20.6 µM [inhibitor, single point] | –
O=C1OCCN1C(=O)[C@H]1[C@H](c2ccccc2)C(c2cccc(Cl)c2)=NN1c1ccc(Br)cc1 | inconclusive: 23.1 µM [inhibitor, single point] | –
S=C(NCc1ccco1)Nc1ccc(Oc2ccc(Cl)cc2)cc1 | inconclusive: 29.1 µM [inhibitor, single point] | –
COc1ccccc1CCC(=O)N(C)CC(=O)Nc1ccc(Cl)c(C(F)(F)F)c1 | inconclusive: 20.6 µM [inhibitor, single point] | –
COc1cc(CN2CCc3ccccc3C2)ccc1O | active: 7.31 µM | –
CC(C)(C)OC(=O)NCCc1nnc(SCc2cccc(Cl)c2)o1 | – | inactive: -5.32%
COc1ccc(-c2nnn(CC(=O)N3CCN(c4ccccc4OC)CC3)n2)cc1 | – | inactive: -17%
Cc1[nH]n(-c2ccccc2)c(=S)c1C=NCCCN=Cc1c(C)[nH]n(-c2ccccc2)c1=S | – | inactive: -4.36%
COc1ccc(NC(=O)c2c(Nc3ccccc3)sc(C(=O)c3ccc(F)cc3)c2N)cc1 | – | inactive: -21.7%
O=C(Oc1c(Cl)cc(Cl)c2cccnc12)c1cccs1 | active: 20.6 µM | –
O=C(COc1cccc(F)c1)N[C@@H](Cc1ccccc1)c1nc2ccccc2[nH]1 | inconclusive: 20.6 µM [inhibitor, single point] | –
CCOC(=O)C1CCCN(C(=O)Cc2ccc(C)cc2)C1 (configuration not stated) | – | inactive: -7.19%
Cc1ccc(NC(=O)COC(=O)C2(c3ccc(Cl)cc3)CCCC2)cc1 | inconclusive: 29.1 µM [inhibitor, single point] | –
O=C(Nc1cccc(C(F)(F)F)c1)C1Cc2c(-c3ccc(Cl)cc3)ccnc2O1 (configuration not stated) | inconclusive: 18.4 µM [inhibitor, single point] | –
CCCc1cc2c(cc1NC(=O)c1ccco1)OCO2 | – | inactive: -27.2%

Compound | Potency | activity, negative = inhibition
NC1=NC[C@@H](Cc2ccc(O)cc2)N1CCC12CC3CC(CC(C3)C1)C2 | – | inactive: -16.5%
CC(=NNc1nc2ccccc2o1)c1cc2ccccc2cn1 | inconclusive: 0.184 µM [inhibitor, full curve] | –
CCCCc1ccc(NC(=O)CN(C)CC(=O)Nc2ccccc2Cl)cc1 | inconclusive: 29.1 µM [inhibitor, single point] | –
CCC(C)Sc1cccc(-c2nc3cc(C)ccn3c2NCc2ccccc2)c1 (configuration not stated) | inconclusive: 29.1 µM [inhibitor, single point] | –
O=C(NCCc1cccnc1)c1cc(COc2ccc(F)cc2Cl)on1 | inconclusive: 18.4 µM [inhibitor, single point] | –
CS(=O)(=O)N1CCN(c2ccc(NC(=O)c3ccc([N+](=O)[O-])o3)cc2)CC1 | active: 2.91 µM | –
C(=C\c1ccccc1)/CN1CCN(C(c2nnnn2C2CCCC2)C2CC2)CC1 (configuration not stated) | inconclusive: 20.6 µM [inhibitor, single point] | –
COc1ccccc1N1CCN(C(=O)c2ccc(-c3ccc(Cl)cc3)o2)CC1 | active: 13 µM | –
FC(F)Oc1ccc(NC(=S)NC23CC4CC(CC(C4)C2)C3)cc1 | inconclusive: 29.1 µM [inhibitor, single point] | –
Cc1cccc(C)c1OCC(=O)Nc1oc(-c2ccccc2)c(-c2ccccc2)c1C#N | inconclusive: 20.6 µM [inhibitor, single point] | –
Cc1ccc(S(=O)(=O)N(CC(=O)Nc2ccc(Cl)c([N+](=O)[O-])c2)C2CCCCC2)cc1 | inconclusive: 18.4 µM [inhibitor, partial curve] | –
O=S1(=O)[C@H]2CC3O[C@]2(C[C@@H]3c2ccc(F)cc2)CN1Cc1ccc(Cl)cc1 | inconclusive: 29.1 µM [inhibitor, single point] | –
NC1=NC[C@H](Cc2ccc(O)cc2)N1CCc1cc(C(F)(F)F)cc(C(F)(F)F)c1 | – | inactive: 0.203%
Cc1cccc(C)c1NC(=O)CCCSc1nnc(-c2ccc(F)cc2)n1-c1ccccc1 | inconclusive: 29.1 µM [inhibitor, single point] | –
CC(NC(=O)C1CCCN1S(=O)(=O)c1ccccc1)c1ccccc1 (configuration not stated) | inconclusive: 8.2 µM [inhibitor, partial curve, poor fit] | –
O=C(c1ccc(Cl)cc1)C(CN1CCCC1)c1ccccc1 (configuration not stated) | active: 3.66 µM | –
COc1ccc(Cl)cc1NC(=O)CN1c2ccccc2CC1C (configuration not stated) | inconclusive: 29.1 µM [inhibitor, single point] | –
CC[C@]12c3[nH]c4ccc(Cl)cc4c3CCN1C(=O)[C@@H](CC(=O)NC/C=C(\C)CCC=C(C)C)C[C@@H]2C(=O)N1CCN(C(=O)C2CC2)CC1 | inconclusive: 29.1 µM [inhibitor, single point] | –
Oc1c(C(c2ccccn2)N2CCCCC2)cc(Cl)c2cccnc12 (configuration not stated) | inconclusive: 32.6 µM [inhibitor, partial curve] | –
CCc1ccc(OCC(=O)Nc2ccc(-c3cc4ccccc4oc3=O)c(OC)c2)cc1 | inconclusive: 7.31 µM [inhibitor, partial curve, poor fit] | –
NC(Cc1ccc(F)cc1)c1csc(Nc2ccc(C(F)(F)F)cn2)n1 (configuration not stated) | inconclusive: 29.1 µM [inhibitor, single point] | –
O=C(Nc1nnc(S(=O)(=O)N2CCCCCC2)s1)c1cccc(Br)c1 | active: 23.1 µM | –
Cc1cc(C)c(S(=O)(=O)NC2CC3CCC2C3)c(C)c1 (configuration not stated) | inconclusive: 29.1 µM [inhibitor, single point] | –

Laid out differently: entries from further up
Compound	Potency	activity, negative = inhibition
CCCCc1ccc(NC(=O)CN(C)CC(=O)Nc2ccccc2Cl)cc1	inconclusive: 29.1 µM [inhibitor, single point]	–
O=C(NCCc1cccnc1)c1cc(COc2ccc(F)cc2Cl)on1	inconclusive: 18.4 µM [inhibitor, single point]	–
Cc1cccc(C)c1OCC(=O)Nc1oc(-c2ccccc2)c(-c2ccccc2)c1C#N	inconclusive: 20.6 µM [inhibitor, single point]	–
Cc1cccc(C)c1NC(=O)CCCSc1nnc(-c2ccc(F)cc2)n1-c1ccccc1	inconclusive: 29.1 µM [inhibitor, single point]	–
CCc1ccc(OCC(=O)Nc2ccc(-c3cc4ccccc4oc3=O)c(OC)c2)cc1	inconclusive: 7.31 µM [inhibitor, partial curve, poor fit]	–
NC(Cc1ccc(F)cc1)c1csc(Nc2ccc(C(F)(F)F)cn2)n1 (configuration not stated)	inconclusive: 29.1 µM [inhibitor, single point]	–

Continued.

Compound | Potency | activity, negative = inhibition
O=C(NCc1ccc2c(c1)OCO2)c1nc(S(=O)(=O)Cc2ccccc2)ncc1Cl | active: 2.31 µM | –
Cc1ccc2c(c1)nnn2C1CCN(CC(=O)Nc2ccccc2N2CCOCC2)CC1 | – | inconclusive: -32% [inhibitor]
C[C@@H]1CN([C@H](C)CO)C(=O)c2cc(NC(=O)Cc3ccccc3)ccc2O[C@H]1CN(C)Cc1ccc(Oc2ccccc2)cc1 | inconclusive: 29.1 µM [inhibitor, single point] | –
Brc1cc(Br)c2ncnc(N3CCCCC3)c2c1 | active: 9.2 µM | –
CC(=O)N1CCc2c(sc(NC(=O)c3ccc([N+](=O)[O-])o3)c2C(N)=O)C1 | active: 4.61 µM | –
CC[C@@H](CC1CCCCC1)C(=O)N(Cc1ccccc1)c1ccccc1 | – | inactive: -17.2%
Oc1c(Cl)cc(CN2CCOCC2)c2cccnc12 | inconclusive: 20.6 µM [inhibitor, single point] | –
COc1ccc(-c2csc(NC3OC(=O)c4ccccc43)n2)cc1 (configuration not stated) | inconclusive: 25.9 µM [inhibitor, single point] | –
CC(C)C[C@H]1CNC(=S)N1C[C@H]1CCCN1C[C@H](Cc1ccc(O)cc1)N1C[C@H](Cc2ccc(O)cc2)N(CCc2ccccc2)C1=S | inconclusive: 29.1 µM [inhibitor, single point] | –
COc1cc(C2C3=C(COC3=O)Oc3cc4c(cc32)OCO4)ccc1O (configuration not stated) | – | inactive: -29.7%
COc1cc(OC)cc(C(=O)NCCCCCCNC(=O)c2cc(OC)cc(OC)c2)c1 | – | inactive: -11.7%
COc1cncc(-c2cnc3sc(NCCc4ccccn4)nn23)c1 | inconclusive: 18.4 µM [inhibitor, single point] | –
C#Cc1ccc(NC(=O)C2(C)CCN2C(=O)c2ccccc2CCc2ccccc2)cc1 (configuration not stated) | inconclusive: 29.1 µM [inhibitor, single point] | –
CCOc1ccc(N/C(N)=N/c2nc(C)cc(C)n2)cc1 | – | inactive: -28.2%
Cc1ccc(-c2nc3ccc(Br)cn3c2Cc2ccccc2C(F)(F)F)cc1 | inconclusive: 20.6 µM [inhibitor, partial curve] | –
CCn1c(CCCOc2ccc(Cl)cc2Cl)nnc1SCC(=O)Nc1cc(F)ccc1C | active: 13 µM | –
CC(=O)Oc1ccc(N(C(C)=O)S(=O)(=O)c2cccs2)c2ccccc12 | inconclusive: 20.6 µM [inhibitor, single point] | –
Nc1cc2[nH]c(=O)c3ccccc3c2cc1[N+](=O)[O-] | inconclusive: 6.51 µM [inhibitor, partial curve] | –
O=C(c1[nH]c(C(F)(F)F)nc1-c1ccccc1)N1CCN(c2cccc(C(F)(F)F)n2)CC1 | active: 16.4 µM | –
CC(=NNC(=S)N1CCCC1)c1ccccn1 | inconclusive: 0.411 µM [inhibitor, full curve] | –
CCCCCCOc1ccc(N2C(=O)CC(N(CCc3ccc(S(N)(=O)=O)cc3)C(C)=O)C2=O)cc1 (configuration not stated) | inconclusive: 29.1 µM [inhibitor, single point] | –
